Results are given in words; binding and its absence hold for the method and conditions named. For part of these data: Binding seen in cells or lysates may run through a third protein. Some results given as binding are weak or reduced against the parent protein; the word gives no strength.
Legend:
[1] = molecular target: Stp2 fused to the Gal4 DNA binding domain (BD-Stp2) (C. albicans) (UniProt Q5AL16); assay: two-hybrid; Stp2 on the Gal4 DNA-binding domain (bait, pGBKT7, Y2HGold), Dal81 on the Gal4 activation domain (prey, pGADT7, Y187); mated diploids on SD/-Leu/-Trp/-His/-Ade with X-α-Gal; blue colonies mean interaction
[2] = molecular target: Stp2-3xHA (C. albicans (strains derived from SC5314)) (UniProt Q5AL16); assay: co-IP; C. albicans grown in YNB + 1% CAA (initial pH 4.5) to log phase; whole cell extracts under nondenaturing conditions (50 mM Tris-HCl pH 7.5, 50 mM NaCl, 1 mM EDTA, 0.5% NP40, 5 mM MgCl2, 10% glycerol); 5 mg protein with anti-c-Myc or anti-HA affinity gel overnight at 4 °C; washes with 150 mM NaCl; western blot
[3] = molecular target: Dal81-13xMyc (C. albicans (strains derived from SC5314)) (UniProt Q5A876); assay: as above

Amino acid sequences for entries named in this document (tags omitted).
UniProt Q5AL16: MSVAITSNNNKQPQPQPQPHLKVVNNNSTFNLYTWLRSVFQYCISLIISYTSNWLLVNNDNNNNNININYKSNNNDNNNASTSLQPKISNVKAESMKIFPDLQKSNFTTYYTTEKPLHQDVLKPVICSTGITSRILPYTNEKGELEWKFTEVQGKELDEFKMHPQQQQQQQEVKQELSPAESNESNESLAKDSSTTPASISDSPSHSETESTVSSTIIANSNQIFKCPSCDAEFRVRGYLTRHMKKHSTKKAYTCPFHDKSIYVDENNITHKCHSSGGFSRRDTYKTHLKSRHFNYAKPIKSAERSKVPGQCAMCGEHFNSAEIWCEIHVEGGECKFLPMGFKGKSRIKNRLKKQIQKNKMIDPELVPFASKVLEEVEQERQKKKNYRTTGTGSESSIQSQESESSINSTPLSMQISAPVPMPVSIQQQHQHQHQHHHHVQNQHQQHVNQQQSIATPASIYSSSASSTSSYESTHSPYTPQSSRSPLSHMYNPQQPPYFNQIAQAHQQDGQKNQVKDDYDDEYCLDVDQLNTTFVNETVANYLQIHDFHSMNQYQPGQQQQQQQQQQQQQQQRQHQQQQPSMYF
UniProt Q5A876: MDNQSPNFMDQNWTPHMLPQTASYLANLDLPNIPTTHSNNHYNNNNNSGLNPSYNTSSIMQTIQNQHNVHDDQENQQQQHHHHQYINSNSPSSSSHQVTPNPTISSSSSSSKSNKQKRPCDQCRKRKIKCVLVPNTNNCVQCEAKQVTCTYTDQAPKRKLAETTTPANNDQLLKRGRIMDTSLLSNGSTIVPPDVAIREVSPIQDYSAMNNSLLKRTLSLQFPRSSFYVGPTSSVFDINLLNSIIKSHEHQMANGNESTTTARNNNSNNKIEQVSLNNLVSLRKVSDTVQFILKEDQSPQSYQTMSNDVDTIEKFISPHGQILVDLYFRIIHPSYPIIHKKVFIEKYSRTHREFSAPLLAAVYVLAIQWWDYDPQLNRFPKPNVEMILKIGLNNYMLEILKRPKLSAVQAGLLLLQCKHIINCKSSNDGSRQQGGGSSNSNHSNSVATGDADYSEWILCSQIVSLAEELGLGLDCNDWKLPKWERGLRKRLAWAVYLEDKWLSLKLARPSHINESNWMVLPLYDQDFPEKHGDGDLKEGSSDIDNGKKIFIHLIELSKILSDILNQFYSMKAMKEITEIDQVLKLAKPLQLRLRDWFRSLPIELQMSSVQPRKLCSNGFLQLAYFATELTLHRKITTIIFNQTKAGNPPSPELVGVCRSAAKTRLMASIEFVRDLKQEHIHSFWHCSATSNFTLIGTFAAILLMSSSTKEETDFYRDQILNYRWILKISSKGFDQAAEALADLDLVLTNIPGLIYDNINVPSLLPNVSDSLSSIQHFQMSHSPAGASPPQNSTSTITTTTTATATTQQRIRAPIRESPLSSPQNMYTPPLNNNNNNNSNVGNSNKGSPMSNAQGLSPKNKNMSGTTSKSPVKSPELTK

In the case of “Dal81 fused to the Gal4 activation domain (AD-Dal81) (from UniProt Q5A876 1-878)”, the binding [1] is reported as “binds”.
“Dal81-13xMyc (from UniProt Q5A876 1-878)” was tested, and the binding [2] was “binds”.
Stp2-3xHA (from UniProt Q5AL16 1-584) was tested, and the binding [3] was “binds”.
